Values from PubChem BioAssay AID1224830 (NIAID, 2016).
In all, the deposit lists about 18,000 reagents; this is an unselected part. Of all reagents, about 2,900 (16%) got an active call. 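Calls are made per well; low scores hint the gene aids the LPS response, high scores that it dampens it.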 Repeated entries: four replicate wells of each siRNA pool. No sequences are given here.

Test: 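Host factors that control LPS-induced TNF expression in human macrophages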 (primary screen)
Cell system: human THP-1 monocytic leukaemia cells, TNF dual-luciferase reporter clone, PMA-differentiated to macrophage-like cells
Reagents: siRNA pool against human genes, 50 nM
Timing: LPS for 4 h, given about 3 days after siRNA transfection
Conditions: bacterial LPS (TLR4 ligand), 10 ng/ml
Measured: 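TNF firefly reporter luminescence divided by renilla, normalised to the plate median, then turned into a robust z-score for each replicate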
Scale: TNF reporter robust z-score: higher = stronger TNF reporter response to LPS
Call rule: 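a well is active when its z-score exceeds 2.8 or falls below -1.5; control wells carry no call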

gene knocked down	TNF reporter robust z-score	Outcome
DDX4 (DEAD-box helicase 4)	0.17	inactive
DDX4 (DEAD-box helicase 4)	-0.17	inactive
DDX4 (DEAD-box helicase 4)	0.15	inactive
DDX4 (DEAD-box helicase 4)	-0.35	inactive
SLC22A16	0.28	inactive
SLC22A16	-0.21	inactive
SLC22A16	1.14	inactive
SLC22A16	0.12	inactive
MFSD2B (MFSD2 lysolipid transporter B, sphingolipid)	0.75	inactive
MFSD2B (MFSD2 lysolipid transporter B, sphingolipid)	0.65	inactive
MFSD2B (MFSD2 lysolipid transporter B, sphingolipid)	0.8	inactive
MFSD2B (MFSD2 lysolipid transporter B, sphingolipid)	0.02	inactive
AQP5 (aquaporin 5)	0.01	inactive
AQP5 (aquaporin 5)	0.85	inactive
AQP5 (aquaporin 5)	0.25	inactive
AQP5 (aquaporin 5)	0.54	inactive
PGAM1 (phosphoglycerate mutase 1)	0.43	inactive
PGAM1 (phosphoglycerate mutase 1)	1.58	inactive
PGAM1 (phosphoglycerate mutase 1)	-0.47	inactive
PGAM1 (phosphoglycerate mutase 1)	0.48	inactive
PATL1 (PAT1 homolog 1, processing body mRNA decay factor)	-1.54	active
PATL1 (PAT1 homolog 1, processing body mRNA decay factor)	0.06	inactive
PATL1 (PAT1 homolog 1, processing body mRNA decay factor)	1.04	inactive
PATL1 (PAT1 homolog 1, processing body mRNA decay factor)	1	inactive
OR52E6 (olfactory receptor family 52 subfamily E member 6)	1.58	inactive
OR52E6 (olfactory receptor family 52 subfamily E member 6)	-0.2	inactive
OR52E6 (olfactory receptor family 52 subfamily E member 6)	1.36	inactive
OR52E6 (olfactory receptor family 52 subfamily E member 6)	0.63	inactive
ZNF428 (zinc finger protein 428)	-1.04	inactive
ZNF428 (zinc finger protein 428)	-0.51	inactive
ZNF428 (zinc finger protein 428)	-0.79	inactive
ZNF428 (zinc finger protein 428)	0.19	inactive
OR8G5 (olfactory receptor family 8 subfamily G member 5)	1.02	inactive
OR8G5 (olfactory receptor family 8 subfamily G member 5)	-0.04	inactive
OR8G5 (olfactory receptor family 8 subfamily G member 5)	0.3	inactive
OR8G5 (olfactory receptor family 8 subfamily G member 5)	-0.24	inactive
CEP63 (centrosomal protein 63)	-1.28	inactive
CEP63 (centrosomal protein 63)	0.03	inactive
CEP63 (centrosomal protein 63)	-0.68	inactive
CEP63 (centrosomal protein 63)	-0.96	inactive
RFT1 (RFT1 glycolipid translocator homolog)	-0.05	inactive
RFT1 (RFT1 glycolipid translocator homolog)	0.33	inactive
RFT1 (RFT1 glycolipid translocator homolog)	0.23	inactive
RFT1 (RFT1 glycolipid translocator homolog)	0.7	inactive
GPR142 (G protein-coupled receptor 142)	-1.78	active
GPR142 (G protein-coupled receptor 142)	-1.4	inactive
GPR142 (G protein-coupled receptor 142)	-1.05	inactive
GPR142 (G protein-coupled receptor 142)	-1.32	inactive

Records listed so far whose target name starts with G or g:
gene knocked down	TNF reporter robust z-score	Outcome
GPR142 (G protein-coupled receptor 142)	-1.78	active
GPR142 (G protein-coupled receptor 142)	-1.4	inactive
GPR142 (G protein-coupled receptor 142)	-1.05	inactive
GPR142 (G protein-coupled receptor 142)	-1.32	inactive
